From patent publication US12083119B2, “Methods and compositions for treating viral or virally-induced conditions” (VIRACTA SUBSIDIARY, INC., priority 2010, dated 2024)
For at least one compound, name, drawing or mass did not settle the structure.

Test system: P3HR1 cells
Experiment: Titration / toxicity of HDAC inhibitors alone on P3HR1 cells
Assay type: cell-based, human
Details: 200 nM
Method: Healthy, actively-growing P3HR1 cells were harvested and resuspended in fresh growth media. Cells were seeded in wells. Appropriate dilutions of HDAC inhibitors were added to certain wells, some of which received an anti-viral drug (such as GCV at 50 μM concentration). At 72 hrs, 800 μl of culture fluid was removed from each well. Wells were then refed with 1.0 ml fresh growth media without HDAC inhibitors. Fresh GCV solution was added to the wells that originally received GCV at the same initial concentration. On day 6, cell morphology was observed under microscope and viable cell counts in each individual wells were determined by trypan blue dye exclusion method using an automated cell counter (Countess, Invitrogen).

CCC(=O)CCCCC[C@@H]1NC(=O)[C@H]2CCCCN2C(=O)[C@H]([C@@H](C)CC)NC(=O)[C@H](Cc2cn(OC)c3ccccc23)NC1=O [apicidin]
cell growth without any GCV: significantly retarded
